Data taken from the supplement of paper PMC10849652.
The list shows a part of the results.

Sequences of proteins named here, by UniProt entry; tags and fusion partners are left off. A change or cut given only in a name is not applied to a line headed by its entry.
UniProt Q8NCR0: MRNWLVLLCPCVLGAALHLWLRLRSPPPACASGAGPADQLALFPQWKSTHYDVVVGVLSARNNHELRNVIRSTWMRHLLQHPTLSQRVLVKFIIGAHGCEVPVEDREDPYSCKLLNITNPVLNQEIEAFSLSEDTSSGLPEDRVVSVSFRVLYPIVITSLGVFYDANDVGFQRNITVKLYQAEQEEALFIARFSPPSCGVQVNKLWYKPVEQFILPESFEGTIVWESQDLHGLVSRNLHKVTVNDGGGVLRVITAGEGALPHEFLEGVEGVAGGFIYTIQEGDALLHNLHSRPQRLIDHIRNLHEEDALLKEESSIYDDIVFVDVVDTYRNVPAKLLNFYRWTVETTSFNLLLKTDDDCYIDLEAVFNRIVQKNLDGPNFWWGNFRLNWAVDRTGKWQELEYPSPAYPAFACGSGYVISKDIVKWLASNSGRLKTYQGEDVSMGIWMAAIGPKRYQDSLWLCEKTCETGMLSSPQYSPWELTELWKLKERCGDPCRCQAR
UniProt Q8NFC6: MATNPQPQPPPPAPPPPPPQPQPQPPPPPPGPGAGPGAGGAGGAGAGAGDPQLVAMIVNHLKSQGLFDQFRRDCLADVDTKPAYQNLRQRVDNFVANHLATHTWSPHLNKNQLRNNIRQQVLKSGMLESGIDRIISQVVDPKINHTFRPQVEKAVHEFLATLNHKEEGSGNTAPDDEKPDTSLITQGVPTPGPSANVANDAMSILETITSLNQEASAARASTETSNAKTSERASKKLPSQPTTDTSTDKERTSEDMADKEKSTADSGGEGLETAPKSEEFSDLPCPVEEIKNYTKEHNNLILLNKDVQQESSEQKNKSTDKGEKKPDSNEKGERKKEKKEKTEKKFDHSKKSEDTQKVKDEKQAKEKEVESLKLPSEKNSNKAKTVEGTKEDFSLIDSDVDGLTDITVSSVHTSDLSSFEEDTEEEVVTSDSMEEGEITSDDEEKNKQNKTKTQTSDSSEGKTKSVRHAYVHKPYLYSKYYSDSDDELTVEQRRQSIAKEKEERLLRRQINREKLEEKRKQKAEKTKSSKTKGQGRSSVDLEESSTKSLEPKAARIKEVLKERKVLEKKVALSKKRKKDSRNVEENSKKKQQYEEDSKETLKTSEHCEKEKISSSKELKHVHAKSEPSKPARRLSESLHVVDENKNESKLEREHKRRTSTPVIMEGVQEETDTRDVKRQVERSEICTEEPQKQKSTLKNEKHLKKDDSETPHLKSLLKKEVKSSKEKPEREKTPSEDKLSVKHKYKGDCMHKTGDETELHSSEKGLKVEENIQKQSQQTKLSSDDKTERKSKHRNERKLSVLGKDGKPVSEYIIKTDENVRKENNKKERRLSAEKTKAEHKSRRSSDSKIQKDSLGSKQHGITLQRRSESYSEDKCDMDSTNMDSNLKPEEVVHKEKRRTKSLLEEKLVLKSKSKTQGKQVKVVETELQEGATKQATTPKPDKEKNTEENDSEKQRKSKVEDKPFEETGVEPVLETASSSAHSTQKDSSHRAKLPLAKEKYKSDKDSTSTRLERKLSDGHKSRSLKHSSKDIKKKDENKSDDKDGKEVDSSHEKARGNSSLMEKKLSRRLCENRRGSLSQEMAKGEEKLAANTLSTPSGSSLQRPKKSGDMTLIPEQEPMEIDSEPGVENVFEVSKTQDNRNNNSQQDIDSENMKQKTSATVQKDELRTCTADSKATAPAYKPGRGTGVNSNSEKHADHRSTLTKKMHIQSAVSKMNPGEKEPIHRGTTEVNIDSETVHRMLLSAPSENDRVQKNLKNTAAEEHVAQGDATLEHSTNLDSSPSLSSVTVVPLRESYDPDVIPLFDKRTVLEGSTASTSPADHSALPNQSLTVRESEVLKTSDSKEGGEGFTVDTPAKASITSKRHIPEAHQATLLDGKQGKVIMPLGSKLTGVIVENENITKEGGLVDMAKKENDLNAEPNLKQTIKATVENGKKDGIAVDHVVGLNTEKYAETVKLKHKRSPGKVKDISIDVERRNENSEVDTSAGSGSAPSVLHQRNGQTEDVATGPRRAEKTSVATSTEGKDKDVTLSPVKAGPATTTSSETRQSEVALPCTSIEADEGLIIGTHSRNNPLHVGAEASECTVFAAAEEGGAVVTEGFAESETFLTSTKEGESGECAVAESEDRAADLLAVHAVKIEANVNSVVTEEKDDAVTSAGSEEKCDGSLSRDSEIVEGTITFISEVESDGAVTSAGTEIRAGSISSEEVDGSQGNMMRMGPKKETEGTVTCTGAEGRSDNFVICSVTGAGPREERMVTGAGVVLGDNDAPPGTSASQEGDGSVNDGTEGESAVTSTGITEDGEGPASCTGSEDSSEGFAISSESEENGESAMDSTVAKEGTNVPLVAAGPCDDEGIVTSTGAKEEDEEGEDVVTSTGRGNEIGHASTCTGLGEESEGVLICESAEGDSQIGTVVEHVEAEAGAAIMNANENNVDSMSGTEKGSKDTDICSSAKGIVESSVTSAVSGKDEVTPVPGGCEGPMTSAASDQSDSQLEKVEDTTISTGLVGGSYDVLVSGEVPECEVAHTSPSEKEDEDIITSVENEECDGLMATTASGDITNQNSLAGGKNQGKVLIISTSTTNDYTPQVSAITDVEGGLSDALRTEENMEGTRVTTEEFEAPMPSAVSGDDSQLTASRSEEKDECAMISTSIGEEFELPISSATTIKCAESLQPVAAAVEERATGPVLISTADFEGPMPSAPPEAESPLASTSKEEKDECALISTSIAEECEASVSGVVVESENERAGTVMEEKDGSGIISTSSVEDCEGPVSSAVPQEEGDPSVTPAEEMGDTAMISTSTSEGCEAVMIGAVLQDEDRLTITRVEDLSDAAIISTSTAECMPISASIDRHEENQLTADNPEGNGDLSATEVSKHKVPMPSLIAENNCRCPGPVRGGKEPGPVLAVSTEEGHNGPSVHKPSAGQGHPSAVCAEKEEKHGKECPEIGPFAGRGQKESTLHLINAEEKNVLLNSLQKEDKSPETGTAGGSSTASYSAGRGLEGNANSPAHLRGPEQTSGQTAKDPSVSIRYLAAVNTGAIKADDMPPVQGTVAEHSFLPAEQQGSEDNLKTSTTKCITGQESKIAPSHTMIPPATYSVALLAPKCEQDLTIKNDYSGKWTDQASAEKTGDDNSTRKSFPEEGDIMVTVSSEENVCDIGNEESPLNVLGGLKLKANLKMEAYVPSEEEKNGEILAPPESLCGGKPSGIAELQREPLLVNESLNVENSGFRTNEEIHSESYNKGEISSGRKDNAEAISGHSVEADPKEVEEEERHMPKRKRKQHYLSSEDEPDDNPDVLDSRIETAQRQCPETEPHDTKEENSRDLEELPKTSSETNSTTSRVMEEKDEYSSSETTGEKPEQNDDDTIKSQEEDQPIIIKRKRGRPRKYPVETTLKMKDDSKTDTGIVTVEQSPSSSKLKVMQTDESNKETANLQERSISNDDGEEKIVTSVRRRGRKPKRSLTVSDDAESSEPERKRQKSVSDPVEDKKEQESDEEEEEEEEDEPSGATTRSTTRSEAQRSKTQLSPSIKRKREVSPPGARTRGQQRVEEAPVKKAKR
UniProt O95816: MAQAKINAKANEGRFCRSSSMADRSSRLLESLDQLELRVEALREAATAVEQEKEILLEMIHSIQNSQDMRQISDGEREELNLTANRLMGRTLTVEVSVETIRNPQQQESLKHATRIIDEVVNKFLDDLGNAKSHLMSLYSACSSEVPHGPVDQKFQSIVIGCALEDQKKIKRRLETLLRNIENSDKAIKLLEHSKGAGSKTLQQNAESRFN
UniProt O95817, whole entry, looked up: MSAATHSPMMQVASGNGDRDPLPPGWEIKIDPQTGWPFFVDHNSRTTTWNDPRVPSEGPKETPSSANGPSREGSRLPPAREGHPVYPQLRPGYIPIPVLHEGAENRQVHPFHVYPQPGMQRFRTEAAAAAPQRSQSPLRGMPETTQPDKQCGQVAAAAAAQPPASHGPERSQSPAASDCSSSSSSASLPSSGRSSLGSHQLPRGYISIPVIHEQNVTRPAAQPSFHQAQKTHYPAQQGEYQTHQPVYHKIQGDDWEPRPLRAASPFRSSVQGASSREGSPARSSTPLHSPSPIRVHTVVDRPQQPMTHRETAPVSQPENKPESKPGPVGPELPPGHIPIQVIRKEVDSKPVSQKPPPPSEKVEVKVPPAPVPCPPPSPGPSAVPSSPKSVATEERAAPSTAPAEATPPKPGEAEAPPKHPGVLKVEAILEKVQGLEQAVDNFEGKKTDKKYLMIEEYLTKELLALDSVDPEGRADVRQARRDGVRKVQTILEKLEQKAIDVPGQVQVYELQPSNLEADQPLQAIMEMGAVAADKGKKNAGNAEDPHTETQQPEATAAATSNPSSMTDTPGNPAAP
UniProt P56945: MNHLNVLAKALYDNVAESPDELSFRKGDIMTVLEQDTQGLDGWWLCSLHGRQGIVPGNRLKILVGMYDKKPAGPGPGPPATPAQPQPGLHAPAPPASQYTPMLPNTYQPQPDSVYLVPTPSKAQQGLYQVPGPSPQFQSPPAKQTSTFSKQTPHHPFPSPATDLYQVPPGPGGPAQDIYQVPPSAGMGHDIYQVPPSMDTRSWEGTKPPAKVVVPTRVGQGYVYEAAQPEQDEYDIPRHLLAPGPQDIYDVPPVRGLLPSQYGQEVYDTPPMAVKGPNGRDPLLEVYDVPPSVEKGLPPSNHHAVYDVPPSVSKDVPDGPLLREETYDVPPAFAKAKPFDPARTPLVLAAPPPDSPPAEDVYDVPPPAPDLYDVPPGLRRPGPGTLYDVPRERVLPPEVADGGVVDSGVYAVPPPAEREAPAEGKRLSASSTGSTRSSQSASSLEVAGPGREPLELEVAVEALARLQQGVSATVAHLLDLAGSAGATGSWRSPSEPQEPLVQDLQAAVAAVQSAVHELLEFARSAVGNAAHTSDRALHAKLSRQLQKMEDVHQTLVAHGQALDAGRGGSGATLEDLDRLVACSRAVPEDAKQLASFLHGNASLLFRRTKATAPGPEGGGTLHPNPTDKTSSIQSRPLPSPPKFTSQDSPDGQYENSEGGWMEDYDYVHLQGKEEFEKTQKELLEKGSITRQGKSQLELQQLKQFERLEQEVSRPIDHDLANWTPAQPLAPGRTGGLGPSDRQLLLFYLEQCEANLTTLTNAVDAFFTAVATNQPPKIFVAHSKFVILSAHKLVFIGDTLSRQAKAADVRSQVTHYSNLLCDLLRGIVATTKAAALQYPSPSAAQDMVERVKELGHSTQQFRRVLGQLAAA
UniProt Q4VC05, whole entry, looked up: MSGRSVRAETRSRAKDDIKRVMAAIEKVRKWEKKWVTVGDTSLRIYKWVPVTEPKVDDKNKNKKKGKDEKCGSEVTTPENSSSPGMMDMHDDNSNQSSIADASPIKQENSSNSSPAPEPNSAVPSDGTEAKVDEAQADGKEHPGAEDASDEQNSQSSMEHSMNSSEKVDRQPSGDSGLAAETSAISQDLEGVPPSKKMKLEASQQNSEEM
UniProt Q9UL45: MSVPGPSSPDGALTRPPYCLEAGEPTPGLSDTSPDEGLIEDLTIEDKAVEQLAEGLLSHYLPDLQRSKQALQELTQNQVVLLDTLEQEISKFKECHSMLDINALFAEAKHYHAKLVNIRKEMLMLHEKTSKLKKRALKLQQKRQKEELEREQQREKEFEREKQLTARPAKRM
UniProt P53004: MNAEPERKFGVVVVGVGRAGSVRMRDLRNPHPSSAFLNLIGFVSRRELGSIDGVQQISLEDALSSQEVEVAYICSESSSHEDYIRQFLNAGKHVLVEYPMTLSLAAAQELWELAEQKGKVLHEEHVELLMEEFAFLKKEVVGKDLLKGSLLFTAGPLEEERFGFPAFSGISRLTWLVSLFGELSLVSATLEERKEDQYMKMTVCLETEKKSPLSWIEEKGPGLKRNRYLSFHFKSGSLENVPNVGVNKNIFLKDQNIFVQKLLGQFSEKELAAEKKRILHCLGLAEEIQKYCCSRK
UniProt O95999: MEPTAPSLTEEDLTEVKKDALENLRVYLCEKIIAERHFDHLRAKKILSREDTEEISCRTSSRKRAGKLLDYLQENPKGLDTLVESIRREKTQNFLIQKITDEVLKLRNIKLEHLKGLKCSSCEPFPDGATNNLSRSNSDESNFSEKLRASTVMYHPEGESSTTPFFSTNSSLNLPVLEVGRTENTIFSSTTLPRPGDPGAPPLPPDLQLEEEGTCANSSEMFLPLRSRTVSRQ
UniProt Q9UL15: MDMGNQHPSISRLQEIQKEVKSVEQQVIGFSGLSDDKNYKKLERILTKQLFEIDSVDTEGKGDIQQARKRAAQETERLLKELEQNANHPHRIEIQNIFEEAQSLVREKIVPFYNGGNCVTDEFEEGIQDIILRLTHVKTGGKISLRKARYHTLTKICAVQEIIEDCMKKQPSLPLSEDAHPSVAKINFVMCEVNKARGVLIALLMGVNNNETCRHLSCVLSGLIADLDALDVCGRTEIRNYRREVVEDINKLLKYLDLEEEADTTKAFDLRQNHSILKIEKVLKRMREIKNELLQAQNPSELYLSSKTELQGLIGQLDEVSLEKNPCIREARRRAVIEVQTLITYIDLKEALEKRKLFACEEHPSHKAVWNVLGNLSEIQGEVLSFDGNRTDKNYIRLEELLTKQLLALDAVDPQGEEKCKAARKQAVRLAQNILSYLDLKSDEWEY

Each target was assayed with c1cn2cc(-c3ccc4cn[nH]c4c3)nc(Nc3ccc(N4CCOCC4)cc3)c2n1 [entospletinib] (assay: log2 fold change, soluble protein after heating vs DMSO (PISA); higher = thermal stabilisation; K562 cells, 10 uM, 30 min; active = over 0.2 and 3.5 SD of the protein, either way, in both replicates (recomputed)).
Procedure, shortened: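 Soluble protein was defined as the supernatant after 21,000xg for 90 min. It came from K562 cells at 2×10^6 cells/mL given 10 μM compound for 30 min, heated in aliquots for 3 min across 48°C-58°C, pooled, and extracted in PBS with 0.5% NP-40 at 4°C, and was quantified by TMTpro 16plex LC-MS/MS with equalised channel sums. Thermal stability against control samples, from duplicates, is reported as log2 fold change.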

log2 fold change, inactive:
BORCS7 (UniProt Q96B45) -0.015, B3GALNT2 (UniProt Q8NCR0) -0.307, BOD1L1 (UniProt Q8NFC6) -0.006, BORCS8 (UniProt Q96FH0) 0.242, B3GAT3 (UniProt O94766) -0.006, BAIAP2L1 (UniProt Q9UHR4) 0.022, BNIP2 (UniProt J3KN59) -0.035, BAG2 (UniProt O95816) 0.169, BLOC1S2 (UniProt Q6QNY1) -0.066, BAG3 (UniProt O95817) 0.042, BAHCC1 (UniProt Q9P281) 0.008, AVL9 (UniProt Q8NBF6) 0.01, BLMH (UniProt Q13867) -0.029, BRI3BP (UniProt Q8WY22) -0.046, BCAR1 isoform 6 (UniProt P56945) -0.05, BNIP3L (UniProt O60238) -0.125, BCL7A isoform 2 (UniProt Q4VC05) 0.143, BLOC1S6 (UniProt Q9UL45) -0.016, BLVRA (UniProt P53004) -0.01, ATRIP (UniProt Q8WXE1) -0.064, BCAP31 isoform 2 (UniProt P51572) -0.007, BCL10 (UniProt O95999) -0.021, BAG5 isoform 2 (UniProt Q9UL15) 0.014
